Laboratory results: patent US20230416739A1
No constants are given. Whether binding was seen depends on the method and setting. For part of these data: In cells and extracts the contact can be indirect. Some binding calls cover weakened binding; strength is not graded here. For part of these data: Sequences can lack the tags named with a protein.

Amino acid sequences for entries named in this document (tags omitted). A change or cut given only in a name is not applied to a line headed by its entry.
UniProt Q01082: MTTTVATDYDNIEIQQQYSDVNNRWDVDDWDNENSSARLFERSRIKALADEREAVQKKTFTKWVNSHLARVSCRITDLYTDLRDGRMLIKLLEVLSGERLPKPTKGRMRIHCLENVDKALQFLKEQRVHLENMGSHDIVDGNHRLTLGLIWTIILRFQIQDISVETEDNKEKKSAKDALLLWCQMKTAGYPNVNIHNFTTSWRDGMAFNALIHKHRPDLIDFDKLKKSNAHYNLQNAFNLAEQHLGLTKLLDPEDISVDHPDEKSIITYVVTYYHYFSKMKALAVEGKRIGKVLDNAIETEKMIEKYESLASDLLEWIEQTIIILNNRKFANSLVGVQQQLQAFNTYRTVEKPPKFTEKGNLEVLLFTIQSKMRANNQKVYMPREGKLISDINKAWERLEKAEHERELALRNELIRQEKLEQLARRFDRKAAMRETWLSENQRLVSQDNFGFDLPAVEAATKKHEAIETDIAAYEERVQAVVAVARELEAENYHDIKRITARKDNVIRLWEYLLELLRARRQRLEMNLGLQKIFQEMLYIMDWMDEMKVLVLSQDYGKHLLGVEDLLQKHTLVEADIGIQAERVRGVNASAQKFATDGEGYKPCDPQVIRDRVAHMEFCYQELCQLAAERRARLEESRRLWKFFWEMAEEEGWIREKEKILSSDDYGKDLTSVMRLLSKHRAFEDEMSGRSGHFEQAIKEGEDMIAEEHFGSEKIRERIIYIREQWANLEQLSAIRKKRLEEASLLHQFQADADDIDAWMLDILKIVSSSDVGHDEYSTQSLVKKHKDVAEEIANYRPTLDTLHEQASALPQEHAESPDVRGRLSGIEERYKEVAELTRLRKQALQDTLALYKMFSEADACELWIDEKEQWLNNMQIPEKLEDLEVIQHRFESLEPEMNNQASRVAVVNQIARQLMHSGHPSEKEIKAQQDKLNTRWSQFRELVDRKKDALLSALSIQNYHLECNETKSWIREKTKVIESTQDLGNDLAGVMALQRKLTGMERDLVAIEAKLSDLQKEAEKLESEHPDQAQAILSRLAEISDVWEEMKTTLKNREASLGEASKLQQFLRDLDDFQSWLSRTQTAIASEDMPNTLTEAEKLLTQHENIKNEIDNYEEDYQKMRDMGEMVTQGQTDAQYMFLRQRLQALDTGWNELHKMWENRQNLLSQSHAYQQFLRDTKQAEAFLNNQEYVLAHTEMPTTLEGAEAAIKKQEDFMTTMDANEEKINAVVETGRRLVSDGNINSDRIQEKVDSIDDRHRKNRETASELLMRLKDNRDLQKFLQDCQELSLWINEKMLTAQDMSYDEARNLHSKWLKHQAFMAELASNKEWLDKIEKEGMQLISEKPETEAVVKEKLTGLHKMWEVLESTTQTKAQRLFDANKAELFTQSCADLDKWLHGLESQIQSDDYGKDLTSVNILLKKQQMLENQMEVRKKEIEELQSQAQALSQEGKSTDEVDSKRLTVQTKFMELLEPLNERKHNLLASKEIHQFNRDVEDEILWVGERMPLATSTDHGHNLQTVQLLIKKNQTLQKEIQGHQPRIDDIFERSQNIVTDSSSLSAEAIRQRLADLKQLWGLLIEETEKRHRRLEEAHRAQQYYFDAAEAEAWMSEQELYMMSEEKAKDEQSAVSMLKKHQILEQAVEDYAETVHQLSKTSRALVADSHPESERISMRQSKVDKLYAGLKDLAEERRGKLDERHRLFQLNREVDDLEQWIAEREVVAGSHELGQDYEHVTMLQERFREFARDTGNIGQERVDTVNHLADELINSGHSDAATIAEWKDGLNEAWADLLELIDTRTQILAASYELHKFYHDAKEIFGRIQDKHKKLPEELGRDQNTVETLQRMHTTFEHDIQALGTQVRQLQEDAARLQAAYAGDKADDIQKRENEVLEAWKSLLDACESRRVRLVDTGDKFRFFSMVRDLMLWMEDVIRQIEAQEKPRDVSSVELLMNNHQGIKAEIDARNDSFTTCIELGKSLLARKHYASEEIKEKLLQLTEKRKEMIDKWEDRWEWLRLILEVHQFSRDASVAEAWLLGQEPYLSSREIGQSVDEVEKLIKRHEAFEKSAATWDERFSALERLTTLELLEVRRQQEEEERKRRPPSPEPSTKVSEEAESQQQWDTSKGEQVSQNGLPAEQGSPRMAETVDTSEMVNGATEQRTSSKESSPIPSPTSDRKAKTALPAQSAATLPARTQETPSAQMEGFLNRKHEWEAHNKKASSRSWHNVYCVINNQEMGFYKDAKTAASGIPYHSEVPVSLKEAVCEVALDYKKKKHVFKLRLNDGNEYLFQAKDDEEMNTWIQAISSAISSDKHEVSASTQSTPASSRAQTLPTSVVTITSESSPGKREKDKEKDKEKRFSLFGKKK

Columns and labels:
Fragment 2 of SREBP1 = molecular target: T1, Fragment 2 of SREBP1 (UniProt P36956); assay: co-immunoprecipitation of SREBP1 fragments with full-length V5-tagged SPTBN1
T1 sequence (looked up): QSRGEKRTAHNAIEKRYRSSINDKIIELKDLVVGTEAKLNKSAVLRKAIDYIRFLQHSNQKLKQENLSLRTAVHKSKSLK

pre-SREBP1 (human) [1] = molecular target: T2, pre-SREBP1 (human) (UniProt P36956); assay: co-immunoprecipitation from Huh7 cells exposed to palmitic acid
T2 sequence (looked up): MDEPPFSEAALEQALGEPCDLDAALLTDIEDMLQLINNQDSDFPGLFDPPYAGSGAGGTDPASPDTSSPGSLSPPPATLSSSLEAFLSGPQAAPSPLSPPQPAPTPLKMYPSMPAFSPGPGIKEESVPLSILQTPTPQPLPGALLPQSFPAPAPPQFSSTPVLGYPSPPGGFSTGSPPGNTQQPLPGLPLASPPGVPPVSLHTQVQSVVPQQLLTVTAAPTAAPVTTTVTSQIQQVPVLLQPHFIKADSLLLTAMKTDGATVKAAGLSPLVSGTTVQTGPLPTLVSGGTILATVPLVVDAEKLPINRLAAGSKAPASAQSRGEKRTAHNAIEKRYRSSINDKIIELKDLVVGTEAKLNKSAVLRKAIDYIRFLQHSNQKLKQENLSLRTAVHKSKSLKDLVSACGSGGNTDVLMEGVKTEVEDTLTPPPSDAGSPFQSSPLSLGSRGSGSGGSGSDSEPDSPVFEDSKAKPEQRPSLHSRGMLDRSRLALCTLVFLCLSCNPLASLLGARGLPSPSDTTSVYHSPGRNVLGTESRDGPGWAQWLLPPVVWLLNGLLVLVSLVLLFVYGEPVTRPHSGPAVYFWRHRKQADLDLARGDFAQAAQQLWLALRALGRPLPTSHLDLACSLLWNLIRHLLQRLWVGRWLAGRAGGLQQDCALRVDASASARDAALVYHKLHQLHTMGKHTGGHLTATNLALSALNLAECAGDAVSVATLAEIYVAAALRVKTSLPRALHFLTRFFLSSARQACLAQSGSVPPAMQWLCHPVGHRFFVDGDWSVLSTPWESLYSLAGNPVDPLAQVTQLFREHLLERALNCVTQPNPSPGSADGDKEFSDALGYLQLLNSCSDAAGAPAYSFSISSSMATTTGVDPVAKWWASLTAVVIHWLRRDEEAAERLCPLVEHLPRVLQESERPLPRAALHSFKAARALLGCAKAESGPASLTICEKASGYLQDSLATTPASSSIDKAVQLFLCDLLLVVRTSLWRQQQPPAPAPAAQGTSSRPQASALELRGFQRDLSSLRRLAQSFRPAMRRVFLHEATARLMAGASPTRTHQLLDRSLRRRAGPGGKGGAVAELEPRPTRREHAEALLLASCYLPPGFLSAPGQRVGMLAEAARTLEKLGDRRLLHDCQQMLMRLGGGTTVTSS

Flag-tagged n-SREBP1 = molecular target: T3, Flag-tagged n-SREBP1 (UniProt P36956); assay: co-immunoprecipitation of V5-tagged SPTBN1 fragments with Flag-tagged n-SREBP1
T3 sequence (looked up): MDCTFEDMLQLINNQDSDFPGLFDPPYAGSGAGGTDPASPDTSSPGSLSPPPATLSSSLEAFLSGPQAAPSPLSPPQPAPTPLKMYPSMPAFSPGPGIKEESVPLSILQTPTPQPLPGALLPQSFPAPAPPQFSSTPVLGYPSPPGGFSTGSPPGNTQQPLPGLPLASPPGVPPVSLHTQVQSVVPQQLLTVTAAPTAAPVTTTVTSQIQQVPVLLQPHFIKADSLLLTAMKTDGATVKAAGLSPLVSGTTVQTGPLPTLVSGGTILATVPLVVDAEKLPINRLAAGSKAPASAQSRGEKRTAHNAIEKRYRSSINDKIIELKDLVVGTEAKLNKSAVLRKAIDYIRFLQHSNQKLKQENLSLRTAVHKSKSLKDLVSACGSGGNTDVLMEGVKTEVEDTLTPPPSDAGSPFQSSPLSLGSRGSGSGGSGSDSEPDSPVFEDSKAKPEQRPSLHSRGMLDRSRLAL

n-SREBP1 (human) = molecular target: T4, n-SREBP1 (human) (UniProt P36956); assay: immunoprecipitation of endogenous SPTBN1 from 3 HCC cell lines, immunoblot
T4 sequence (looked up): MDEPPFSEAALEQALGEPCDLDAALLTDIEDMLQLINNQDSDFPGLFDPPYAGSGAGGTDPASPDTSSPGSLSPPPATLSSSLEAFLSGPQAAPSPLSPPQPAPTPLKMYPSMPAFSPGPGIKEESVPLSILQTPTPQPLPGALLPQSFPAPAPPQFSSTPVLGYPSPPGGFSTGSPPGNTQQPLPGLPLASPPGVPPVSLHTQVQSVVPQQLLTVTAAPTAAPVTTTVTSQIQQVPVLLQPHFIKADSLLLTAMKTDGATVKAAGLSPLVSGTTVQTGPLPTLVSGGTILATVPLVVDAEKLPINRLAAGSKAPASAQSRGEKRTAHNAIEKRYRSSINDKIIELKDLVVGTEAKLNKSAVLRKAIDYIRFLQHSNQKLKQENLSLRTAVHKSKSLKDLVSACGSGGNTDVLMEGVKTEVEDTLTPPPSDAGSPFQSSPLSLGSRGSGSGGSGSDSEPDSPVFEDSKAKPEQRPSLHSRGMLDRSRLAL

pre-SREBP1 (human) [2] = molecular target: T2, pre-SREBP1 (human); assay: immunoprecipitation of endogenous SPTBN1 from 3 HCC cell lines, immunoblot; the interaction with pre-SREBP1 occurs in the cytoplasm

Substance: full-length V5-tagged SPTBN1 (from UniProt Q01082 1-2364)
- binding (Fragment 2 of SREBP1): binds

Substance: N-SPTBN1 (from UniProt Q01082 1-1454)
- binding (pre-SREBP1 (human) [1]): binds

Substance: N-SPTBN1 (amino acids M1-D1454) tagged with V5 (from UniProt Q01082 1-1454)
- binding (Flag-tagged n-SREBP1): binds

Substance: SPTBN1 (from UniProt Q01082 2-2364)
- binding (pre-SREBP1 (human) [1]): binds
- binding (n-SREBP1 (human)): binds
- binding (pre-SREBP1 (human) [2]): binds
